# PubChem BioAssay AID1159578, Peter MacCallum Cancer Centre, 2015
# Aim: 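Genome-wide hunt for genes controlling movement of lymphatic endothelial cells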 (primary screen)
# Cells: human lymphatic endothelial cells
# Reagents: siRNA pool against human genes, 40 nM
# Duration: 48 h after transfection
# Measurement: 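High-content imaging of dye-stained cells in a scratch assay measures filled wound area and nuclei per well; duplicate means given as ratio to mock and robust z-score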
# Direction: migration robust z-score: higher = faster migration into the scratch; nuclei per well: higher = more cells in the well
# Rule for the call: 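Pools averaging fewer than 3300 nuclei are never called; remaining pools count as changed when migration robust z lies outside -2 to 2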
# Calls: active = migration changed; inactive = no migration change, or too few cells
# The deposit covers about 18,000 reagents; shown is an unselected part. In the full data, about 1,030 (5.7%) got an active call. 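Inactive calls also include pools with fewer than 3300 nuclei, whose migration was not assessed.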 The raw values are shown without normalisation. A number with no mark means an inactive call. Further read-outs or replicates are left out here.
gene symbol,PubChem SID,migration robust z-score,migration class with cell-count check,"nuclei per well, duplicate mean"
CA14,SID255356379,-0.64,migration z between -2 and 2; enough cells,5459
IRF5,SID255350528,-0.93,migration z between -2 and 2; enough cells,4410
KIF1C,SID255355325,-0.18,migration z between -2 and 2; enough cells,4992
SLC27A3,SID255355512,-1.53,migration z between -2 and 2; enough cells,6761
SLC35A4,SID255362207,0.34,migration z between -2 and 2; enough cells,7592
STAG3,SID255355312,-0.94,migration z between -2 and 2; enough cells,5848
PPP2R1A,SID255351744,0.02,migration z between -2 and 2; enough cells,5987
CHKA,SID255348906,0.54,migration z between -2 and 2; enough cells,4713
CXXC1,SID255357294,-1.66,migration z between -2 and 2; enough cells,4834
MPHOSPH6,SID255354888,0.38,migration z between -2 and 2; enough cells,5672
PTGFR,SID255351926,0.9,migration z between -2 and 2; enough cells,6215
EPB41L2,SID255349516,-0.04,migration z between -2 and 2; enough cells,5621
KLK10,SID255351860,-0.96,migration z between -2 and 2; enough cells,5933
TMEM68,SID255363025,-0.86,migration z between -2 and 2; enough cells,6262
PKN1,SID255351802,0.88,migration z between -2 and 2; enough cells,6024
ANKRD1,SID255356896,-0.16,migration z between -2 and 2; enough cells,5822
UBAP2L,SID255354646,-1.18,migration z between -2 and 2; enough cells,5272
GPR63,SID255360872,0.24,migration z between -2 and 2; enough cells,5089
ZNF416,SID255358756,0.99,migration z between -2 and 2; enough cells,5599
SUPT3H,SID255353573,0.42,migration z between -2 and 2; enough cells,5436
ZNF101,SID255362110,1.22,migration z between -2 and 2; enough cells,6422
GOLGA8EP,SID255365654,-1.27,migration z between -2 and 2; enough cells,6888
PAK2,SID255351410,0.65,migration z between -2 and 2; enough cells,5650
HYI,SID255360974,0.08,migration z between -2 and 2; enough cells,5835
H2AC19,SID255366166,0.46,migration z between -2 and 2; enough cells,5376
LSM14A,SID255356651,0.9,migration z between -2 and 2; enough cells,6422
ARF6,SID255348382,-1.04,migration z between -2 and 2; enough cells,5172
POF1B,SID255360610,-1.51,migration z between -2 and 2; enough cells,6310
CFL2,SID255348881,-1.23,migration z between -2 and 2; enough cells,5020
ACSF3,SID255363990,-0.13,migration z between -2 and 2; enough cells,5556
PCDHGB5,SID255358993,0.22,migration z between -2 and 2; enough cells,6002
CCER1,SID255363971,-0.28,migration z between -2 and 2; enough cells,5494
BPY2B,SID255365978,0.42,migration z between -2 and 2; enough cells,6200
HSPB8,SID255356776,-3.81,under 3300 nuclei; migration not judged,3102
CCDC127,SID255362957,0.6,migration z between -2 and 2; enough cells,6455
MRS2,SID255359367,0.22,migration z between -2 and 2; enough cells,5536
TYK2,SID255353015,-0.36,migration z between -2 and 2; enough cells,5510

5 entries from above, limited to “nuclei per well, duplicate mean”.
HYI [SID255360974]: 5835
H2AC19 [SID255366166]: 5376
LSM14A [SID255356651]: 6422
ARF6 [SID255348382]: 5172
POF1B [SID255360610]: 6310

The list goes on:
gene symbol,PubChem SID,migration robust z-score,migration class with cell-count check,"nuclei per well, duplicate mean"
RASAL1,SID255353550,-0.06,migration z between -2 and 2; enough cells,5043
OR4A16,SID255360861,0.72,migration z between -2 and 2; enough cells,5652
GJB2,SID255349898,-1.71,migration z between -2 and 2; enough cells,5444
ZNF699,SID255365339,-0.98,migration z between -2 and 2; enough cells,5895
MAGED1,SID255354324,1.09,migration z between -2 and 2; enough cells,5412
IFNA2,SID255350401,-0.02,migration z between -2 and 2; enough cells,5816
PGA5,SID255351534,1.66,migration z between -2 and 2; enough cells,5948
NPNT,SID255364505,-1.54,migration z between -2 and 2; enough cells,3436
WFDC8,SID255361793,-1.69,under 3300 nuclei; migration not judged,3256
JPH4,SID255361385,-0.36,migration z between -2 and 2; enough cells,5395
KLHL21,SID255354651,1.56,migration z between -2 and 2; enough cells,5642
ZNF414,SID255361339,-0.19,migration z between -2 and 2; enough cells,5584
GUCY2C,SID255350106,-0.39,migration z between -2 and 2; enough cells,5474
FERD3L,SID255364361,-1.66,migration z between -2 and 2; enough cells,5038
NEU4,SID255362844,-0.18,migration z between -2 and 2; enough cells,5836
KLHL6,SID255361750,-0.18,migration z between -2 and 2; enough cells,6676
HECA,SID255357857,0.32,migration z between -2 and 2; enough cells,7178
KNDC1,SID255361694,-1.52,under 3300 nuclei; migration not judged,2666
ELK4,SID255349490,0.05,migration z between -2 and 2; enough cells,5622
PRDX4,SID255355169,-0.8,migration z between -2 and 2; enough cells,6688
